These results are taken from WO1994018227A2.

By UniProt entry, the sequences of proteins in these tests, tags left out. Residues count along the entry.
UniProt Q07954, residues 20-4544: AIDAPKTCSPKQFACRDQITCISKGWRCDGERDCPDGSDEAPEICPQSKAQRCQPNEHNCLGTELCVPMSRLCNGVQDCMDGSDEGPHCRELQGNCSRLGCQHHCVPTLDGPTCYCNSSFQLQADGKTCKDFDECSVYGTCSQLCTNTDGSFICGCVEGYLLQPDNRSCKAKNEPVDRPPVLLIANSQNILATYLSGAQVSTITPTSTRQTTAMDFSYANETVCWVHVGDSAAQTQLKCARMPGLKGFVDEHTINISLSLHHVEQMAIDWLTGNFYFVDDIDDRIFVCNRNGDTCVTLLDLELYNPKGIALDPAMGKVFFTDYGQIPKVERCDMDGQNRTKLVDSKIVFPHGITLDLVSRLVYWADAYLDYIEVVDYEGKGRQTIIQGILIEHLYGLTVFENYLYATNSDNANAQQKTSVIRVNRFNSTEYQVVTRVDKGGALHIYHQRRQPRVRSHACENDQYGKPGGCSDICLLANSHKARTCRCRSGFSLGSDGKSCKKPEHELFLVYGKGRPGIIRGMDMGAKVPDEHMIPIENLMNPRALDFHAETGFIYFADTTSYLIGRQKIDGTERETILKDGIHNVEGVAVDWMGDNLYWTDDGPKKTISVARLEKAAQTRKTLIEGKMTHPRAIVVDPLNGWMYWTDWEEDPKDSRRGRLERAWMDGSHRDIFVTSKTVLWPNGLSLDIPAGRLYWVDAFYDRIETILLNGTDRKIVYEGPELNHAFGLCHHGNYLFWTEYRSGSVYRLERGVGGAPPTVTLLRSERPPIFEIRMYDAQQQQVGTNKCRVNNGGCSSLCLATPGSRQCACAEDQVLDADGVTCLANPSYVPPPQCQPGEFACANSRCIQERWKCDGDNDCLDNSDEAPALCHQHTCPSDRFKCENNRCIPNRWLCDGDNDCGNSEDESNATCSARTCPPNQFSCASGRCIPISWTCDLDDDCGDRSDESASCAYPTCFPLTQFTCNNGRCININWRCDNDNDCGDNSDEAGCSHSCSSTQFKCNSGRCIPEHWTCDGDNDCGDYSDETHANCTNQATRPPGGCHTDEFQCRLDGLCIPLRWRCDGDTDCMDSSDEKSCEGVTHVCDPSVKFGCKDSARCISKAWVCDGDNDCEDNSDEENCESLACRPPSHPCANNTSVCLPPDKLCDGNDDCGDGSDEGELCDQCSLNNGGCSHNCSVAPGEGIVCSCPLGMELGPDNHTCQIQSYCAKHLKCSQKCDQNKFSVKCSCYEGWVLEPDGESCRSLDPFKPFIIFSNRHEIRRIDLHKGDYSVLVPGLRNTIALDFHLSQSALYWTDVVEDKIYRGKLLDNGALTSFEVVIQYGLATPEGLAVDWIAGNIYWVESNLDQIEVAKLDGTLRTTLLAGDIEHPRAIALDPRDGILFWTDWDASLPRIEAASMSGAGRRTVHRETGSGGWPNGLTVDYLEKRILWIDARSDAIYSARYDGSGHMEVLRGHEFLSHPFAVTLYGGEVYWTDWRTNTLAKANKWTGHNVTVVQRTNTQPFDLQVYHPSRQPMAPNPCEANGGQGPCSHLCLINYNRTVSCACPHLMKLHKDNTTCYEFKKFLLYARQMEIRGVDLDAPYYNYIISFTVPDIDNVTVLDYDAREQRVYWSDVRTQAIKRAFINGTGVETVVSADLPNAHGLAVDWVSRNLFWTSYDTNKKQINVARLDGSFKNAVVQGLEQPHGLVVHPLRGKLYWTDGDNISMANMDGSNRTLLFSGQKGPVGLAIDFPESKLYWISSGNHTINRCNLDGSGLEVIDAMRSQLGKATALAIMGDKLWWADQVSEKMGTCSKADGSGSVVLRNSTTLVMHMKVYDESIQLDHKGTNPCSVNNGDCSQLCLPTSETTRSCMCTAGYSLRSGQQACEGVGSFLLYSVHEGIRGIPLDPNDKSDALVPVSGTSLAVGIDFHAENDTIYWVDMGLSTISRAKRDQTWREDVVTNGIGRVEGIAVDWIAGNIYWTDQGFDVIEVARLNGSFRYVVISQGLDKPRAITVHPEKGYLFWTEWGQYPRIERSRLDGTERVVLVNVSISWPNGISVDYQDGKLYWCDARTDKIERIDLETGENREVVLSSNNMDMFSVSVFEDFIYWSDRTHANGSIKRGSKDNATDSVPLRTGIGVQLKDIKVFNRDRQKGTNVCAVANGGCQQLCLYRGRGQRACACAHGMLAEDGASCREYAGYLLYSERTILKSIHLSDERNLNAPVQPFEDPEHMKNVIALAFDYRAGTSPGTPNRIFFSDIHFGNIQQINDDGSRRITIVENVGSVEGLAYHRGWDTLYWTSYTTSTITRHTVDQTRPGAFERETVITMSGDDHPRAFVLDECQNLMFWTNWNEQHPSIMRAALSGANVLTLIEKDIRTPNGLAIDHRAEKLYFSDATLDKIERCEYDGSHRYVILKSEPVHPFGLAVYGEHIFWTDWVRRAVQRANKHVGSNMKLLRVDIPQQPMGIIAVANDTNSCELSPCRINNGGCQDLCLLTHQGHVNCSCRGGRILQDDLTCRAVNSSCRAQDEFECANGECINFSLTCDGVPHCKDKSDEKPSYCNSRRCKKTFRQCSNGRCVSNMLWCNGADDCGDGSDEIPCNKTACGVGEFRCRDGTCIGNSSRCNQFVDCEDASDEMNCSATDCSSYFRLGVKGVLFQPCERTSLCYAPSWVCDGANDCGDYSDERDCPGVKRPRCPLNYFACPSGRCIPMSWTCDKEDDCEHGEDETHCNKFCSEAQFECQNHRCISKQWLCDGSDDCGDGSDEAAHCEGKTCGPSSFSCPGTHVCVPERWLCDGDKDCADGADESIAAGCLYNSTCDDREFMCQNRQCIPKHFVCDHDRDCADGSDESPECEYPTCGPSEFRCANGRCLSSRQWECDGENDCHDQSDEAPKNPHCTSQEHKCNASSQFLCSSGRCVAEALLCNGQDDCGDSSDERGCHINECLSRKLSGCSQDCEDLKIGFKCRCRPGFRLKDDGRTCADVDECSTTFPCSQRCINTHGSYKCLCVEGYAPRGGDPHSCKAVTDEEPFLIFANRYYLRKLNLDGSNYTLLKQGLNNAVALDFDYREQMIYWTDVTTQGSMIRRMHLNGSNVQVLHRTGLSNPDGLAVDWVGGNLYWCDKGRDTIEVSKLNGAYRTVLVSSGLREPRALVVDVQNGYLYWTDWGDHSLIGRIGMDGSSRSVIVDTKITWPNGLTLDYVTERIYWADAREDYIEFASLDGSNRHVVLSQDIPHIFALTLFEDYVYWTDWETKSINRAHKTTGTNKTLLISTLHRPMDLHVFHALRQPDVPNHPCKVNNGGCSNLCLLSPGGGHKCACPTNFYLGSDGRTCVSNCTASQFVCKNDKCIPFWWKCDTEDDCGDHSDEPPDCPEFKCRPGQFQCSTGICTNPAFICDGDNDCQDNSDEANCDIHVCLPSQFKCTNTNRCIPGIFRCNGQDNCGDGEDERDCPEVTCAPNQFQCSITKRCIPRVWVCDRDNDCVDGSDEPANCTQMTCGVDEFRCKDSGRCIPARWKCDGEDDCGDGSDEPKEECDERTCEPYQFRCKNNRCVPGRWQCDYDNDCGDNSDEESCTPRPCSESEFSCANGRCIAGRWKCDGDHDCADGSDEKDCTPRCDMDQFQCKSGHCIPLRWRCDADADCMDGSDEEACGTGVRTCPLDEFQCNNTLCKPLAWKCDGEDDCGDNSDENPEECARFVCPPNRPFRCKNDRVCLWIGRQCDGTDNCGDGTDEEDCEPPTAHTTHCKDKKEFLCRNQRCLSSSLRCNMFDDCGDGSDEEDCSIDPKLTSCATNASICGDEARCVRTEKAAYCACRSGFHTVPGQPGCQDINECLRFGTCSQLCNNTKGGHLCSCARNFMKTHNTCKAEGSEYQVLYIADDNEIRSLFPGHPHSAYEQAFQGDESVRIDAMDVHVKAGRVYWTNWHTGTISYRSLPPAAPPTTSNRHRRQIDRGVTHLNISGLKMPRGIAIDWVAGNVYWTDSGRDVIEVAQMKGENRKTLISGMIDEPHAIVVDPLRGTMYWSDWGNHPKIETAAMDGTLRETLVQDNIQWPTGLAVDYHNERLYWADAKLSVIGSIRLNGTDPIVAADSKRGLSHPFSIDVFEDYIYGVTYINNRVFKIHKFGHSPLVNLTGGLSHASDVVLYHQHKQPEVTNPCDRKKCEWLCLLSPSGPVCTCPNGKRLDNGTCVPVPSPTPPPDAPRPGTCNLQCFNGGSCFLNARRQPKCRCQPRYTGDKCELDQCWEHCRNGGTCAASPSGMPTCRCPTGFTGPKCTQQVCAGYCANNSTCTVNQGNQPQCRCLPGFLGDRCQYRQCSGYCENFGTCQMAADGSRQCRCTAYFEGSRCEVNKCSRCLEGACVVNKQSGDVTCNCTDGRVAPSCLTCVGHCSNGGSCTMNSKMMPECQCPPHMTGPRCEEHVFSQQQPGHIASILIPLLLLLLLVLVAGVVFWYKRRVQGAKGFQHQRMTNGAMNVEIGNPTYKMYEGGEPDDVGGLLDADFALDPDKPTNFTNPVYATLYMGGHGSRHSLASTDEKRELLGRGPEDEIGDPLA
UniProt P30533, residues 35-357: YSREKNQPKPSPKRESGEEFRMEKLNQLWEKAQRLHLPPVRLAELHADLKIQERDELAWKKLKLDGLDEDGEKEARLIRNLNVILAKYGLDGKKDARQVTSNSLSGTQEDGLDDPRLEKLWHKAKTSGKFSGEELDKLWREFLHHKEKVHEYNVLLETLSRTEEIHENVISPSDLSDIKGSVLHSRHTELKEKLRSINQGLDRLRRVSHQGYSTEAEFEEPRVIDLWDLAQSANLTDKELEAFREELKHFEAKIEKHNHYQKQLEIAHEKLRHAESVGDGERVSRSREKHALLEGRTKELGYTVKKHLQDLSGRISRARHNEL

This test concerns the target α2-Macroglobulin Receptor (UniProt Q07954). The test is described as follows: ligand binding to the receptor, assay not described.

No constants are given. Whether binding was seen depends on the method and setting. Some binding calls cover weakened binding; strength is not graded here.

For “purified natural α2MRAP protein (from UniProt P30533 35-357)”, the binding result was “binds”.
Next, “recombinant human α2-Macroglobulin Receptor Associated Protein (from UniProt P30533 35-357)”: “binds”.
